From the supplement of paper PMC6411743 come the findings set out here.

Sequences of proteins named here, by UniProt entry; tags and fusion partners are left off. A change or cut given only in a name is not applied to a line headed by its entry.
UniProt O95139, whole entry: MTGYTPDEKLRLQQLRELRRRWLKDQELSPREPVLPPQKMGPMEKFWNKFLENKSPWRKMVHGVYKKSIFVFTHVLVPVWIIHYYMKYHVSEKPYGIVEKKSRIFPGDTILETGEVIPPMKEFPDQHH
UniProt Q2M389: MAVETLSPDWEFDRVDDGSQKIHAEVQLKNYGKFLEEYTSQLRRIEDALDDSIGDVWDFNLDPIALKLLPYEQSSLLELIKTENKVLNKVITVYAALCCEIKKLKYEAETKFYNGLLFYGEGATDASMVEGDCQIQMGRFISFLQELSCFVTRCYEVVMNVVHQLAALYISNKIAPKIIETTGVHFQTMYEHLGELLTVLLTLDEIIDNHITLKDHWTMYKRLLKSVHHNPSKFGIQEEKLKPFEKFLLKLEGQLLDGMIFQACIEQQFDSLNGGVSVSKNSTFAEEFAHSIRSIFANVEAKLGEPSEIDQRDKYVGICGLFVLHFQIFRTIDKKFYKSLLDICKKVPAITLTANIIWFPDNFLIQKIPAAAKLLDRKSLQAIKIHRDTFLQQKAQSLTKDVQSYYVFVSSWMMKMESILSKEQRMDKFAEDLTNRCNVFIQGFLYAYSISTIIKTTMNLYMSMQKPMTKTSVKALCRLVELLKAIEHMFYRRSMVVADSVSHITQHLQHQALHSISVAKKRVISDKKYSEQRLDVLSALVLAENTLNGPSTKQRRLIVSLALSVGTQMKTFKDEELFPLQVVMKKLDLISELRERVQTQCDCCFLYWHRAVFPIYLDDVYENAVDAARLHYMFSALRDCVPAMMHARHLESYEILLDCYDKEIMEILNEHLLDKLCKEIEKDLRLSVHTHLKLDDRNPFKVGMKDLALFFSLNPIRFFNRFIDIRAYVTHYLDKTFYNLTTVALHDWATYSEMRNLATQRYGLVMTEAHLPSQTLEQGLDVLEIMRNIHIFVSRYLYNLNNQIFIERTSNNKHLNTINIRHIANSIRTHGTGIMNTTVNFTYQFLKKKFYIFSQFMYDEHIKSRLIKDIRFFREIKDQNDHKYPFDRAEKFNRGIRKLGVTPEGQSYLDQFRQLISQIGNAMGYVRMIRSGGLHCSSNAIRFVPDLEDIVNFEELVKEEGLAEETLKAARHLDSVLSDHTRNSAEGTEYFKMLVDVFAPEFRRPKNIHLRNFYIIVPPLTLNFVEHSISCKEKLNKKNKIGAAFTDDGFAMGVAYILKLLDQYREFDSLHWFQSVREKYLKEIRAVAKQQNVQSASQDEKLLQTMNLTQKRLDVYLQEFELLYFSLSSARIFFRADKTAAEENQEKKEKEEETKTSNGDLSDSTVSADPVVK
UniProt Q9Y3T6: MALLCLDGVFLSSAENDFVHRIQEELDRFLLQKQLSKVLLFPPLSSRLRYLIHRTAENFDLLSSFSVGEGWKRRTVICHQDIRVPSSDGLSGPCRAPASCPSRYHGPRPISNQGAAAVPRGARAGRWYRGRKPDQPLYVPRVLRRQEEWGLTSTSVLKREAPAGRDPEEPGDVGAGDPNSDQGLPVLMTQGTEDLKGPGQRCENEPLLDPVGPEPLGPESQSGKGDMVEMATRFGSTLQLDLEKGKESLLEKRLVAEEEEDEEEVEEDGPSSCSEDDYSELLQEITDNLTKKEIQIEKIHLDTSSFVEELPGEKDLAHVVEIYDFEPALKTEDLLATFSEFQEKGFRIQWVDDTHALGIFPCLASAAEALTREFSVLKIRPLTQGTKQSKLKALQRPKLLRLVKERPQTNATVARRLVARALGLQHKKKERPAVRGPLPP
UniProt Q6ZRP7: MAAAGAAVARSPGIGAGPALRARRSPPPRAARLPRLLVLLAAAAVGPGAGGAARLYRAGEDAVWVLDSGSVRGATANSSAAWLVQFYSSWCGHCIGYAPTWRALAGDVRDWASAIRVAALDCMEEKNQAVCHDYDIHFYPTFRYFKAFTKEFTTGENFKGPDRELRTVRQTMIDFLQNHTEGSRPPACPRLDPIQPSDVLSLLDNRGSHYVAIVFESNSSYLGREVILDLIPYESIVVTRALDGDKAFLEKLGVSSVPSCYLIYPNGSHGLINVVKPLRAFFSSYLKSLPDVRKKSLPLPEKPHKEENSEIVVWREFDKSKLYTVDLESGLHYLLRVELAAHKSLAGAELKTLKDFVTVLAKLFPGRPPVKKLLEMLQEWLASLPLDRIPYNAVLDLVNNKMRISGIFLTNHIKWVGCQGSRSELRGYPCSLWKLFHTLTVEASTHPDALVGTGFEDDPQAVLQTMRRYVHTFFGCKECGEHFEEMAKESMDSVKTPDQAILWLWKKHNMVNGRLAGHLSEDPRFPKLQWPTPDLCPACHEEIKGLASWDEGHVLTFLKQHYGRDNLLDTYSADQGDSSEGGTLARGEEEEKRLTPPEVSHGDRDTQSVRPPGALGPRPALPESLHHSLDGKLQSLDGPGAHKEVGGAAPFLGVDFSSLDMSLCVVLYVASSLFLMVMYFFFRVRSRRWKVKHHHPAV
UniProt Q5VT25: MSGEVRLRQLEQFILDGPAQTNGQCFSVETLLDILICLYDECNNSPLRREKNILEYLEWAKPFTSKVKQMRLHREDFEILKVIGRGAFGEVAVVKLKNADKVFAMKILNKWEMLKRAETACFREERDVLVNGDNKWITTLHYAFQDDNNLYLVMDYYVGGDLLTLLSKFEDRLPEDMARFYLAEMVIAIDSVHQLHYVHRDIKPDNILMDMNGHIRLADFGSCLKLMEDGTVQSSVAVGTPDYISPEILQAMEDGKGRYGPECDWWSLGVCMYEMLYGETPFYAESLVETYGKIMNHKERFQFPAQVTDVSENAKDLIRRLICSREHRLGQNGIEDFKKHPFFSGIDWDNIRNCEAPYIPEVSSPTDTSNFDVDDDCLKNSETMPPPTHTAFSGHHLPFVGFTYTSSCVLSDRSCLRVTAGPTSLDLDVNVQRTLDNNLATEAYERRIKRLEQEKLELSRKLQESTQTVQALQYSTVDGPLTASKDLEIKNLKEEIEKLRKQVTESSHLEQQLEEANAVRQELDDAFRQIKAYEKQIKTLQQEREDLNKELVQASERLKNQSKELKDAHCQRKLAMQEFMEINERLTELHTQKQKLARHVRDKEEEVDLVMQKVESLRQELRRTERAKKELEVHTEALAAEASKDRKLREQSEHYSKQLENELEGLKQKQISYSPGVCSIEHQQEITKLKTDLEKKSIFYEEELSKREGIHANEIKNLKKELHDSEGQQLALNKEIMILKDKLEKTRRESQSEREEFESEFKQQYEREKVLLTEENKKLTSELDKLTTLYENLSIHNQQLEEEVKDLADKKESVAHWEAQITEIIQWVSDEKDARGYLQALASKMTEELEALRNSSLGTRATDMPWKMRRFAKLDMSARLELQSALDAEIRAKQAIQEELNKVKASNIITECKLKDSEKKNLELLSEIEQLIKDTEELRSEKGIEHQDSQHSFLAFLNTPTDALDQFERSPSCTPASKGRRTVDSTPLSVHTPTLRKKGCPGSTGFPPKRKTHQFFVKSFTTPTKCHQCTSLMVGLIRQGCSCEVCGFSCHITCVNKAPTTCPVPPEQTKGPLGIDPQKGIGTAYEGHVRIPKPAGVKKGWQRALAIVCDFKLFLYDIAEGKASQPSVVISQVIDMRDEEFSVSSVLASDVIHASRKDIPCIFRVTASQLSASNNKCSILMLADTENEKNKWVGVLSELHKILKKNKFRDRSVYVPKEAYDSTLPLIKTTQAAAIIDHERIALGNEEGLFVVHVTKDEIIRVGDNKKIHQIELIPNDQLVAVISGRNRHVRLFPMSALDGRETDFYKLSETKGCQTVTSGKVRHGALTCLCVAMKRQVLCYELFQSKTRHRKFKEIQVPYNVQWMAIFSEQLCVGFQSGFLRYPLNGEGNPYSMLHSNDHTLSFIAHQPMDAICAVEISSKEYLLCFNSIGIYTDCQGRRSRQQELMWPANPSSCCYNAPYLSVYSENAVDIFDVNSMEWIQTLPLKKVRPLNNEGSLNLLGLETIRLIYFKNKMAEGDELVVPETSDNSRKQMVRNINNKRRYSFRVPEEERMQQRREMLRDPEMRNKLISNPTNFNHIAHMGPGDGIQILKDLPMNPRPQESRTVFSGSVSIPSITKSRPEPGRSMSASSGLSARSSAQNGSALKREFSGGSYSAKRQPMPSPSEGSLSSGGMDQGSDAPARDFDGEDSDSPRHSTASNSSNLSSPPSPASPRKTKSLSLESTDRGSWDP
UniProt B7ZVY7, whole entry, looked up: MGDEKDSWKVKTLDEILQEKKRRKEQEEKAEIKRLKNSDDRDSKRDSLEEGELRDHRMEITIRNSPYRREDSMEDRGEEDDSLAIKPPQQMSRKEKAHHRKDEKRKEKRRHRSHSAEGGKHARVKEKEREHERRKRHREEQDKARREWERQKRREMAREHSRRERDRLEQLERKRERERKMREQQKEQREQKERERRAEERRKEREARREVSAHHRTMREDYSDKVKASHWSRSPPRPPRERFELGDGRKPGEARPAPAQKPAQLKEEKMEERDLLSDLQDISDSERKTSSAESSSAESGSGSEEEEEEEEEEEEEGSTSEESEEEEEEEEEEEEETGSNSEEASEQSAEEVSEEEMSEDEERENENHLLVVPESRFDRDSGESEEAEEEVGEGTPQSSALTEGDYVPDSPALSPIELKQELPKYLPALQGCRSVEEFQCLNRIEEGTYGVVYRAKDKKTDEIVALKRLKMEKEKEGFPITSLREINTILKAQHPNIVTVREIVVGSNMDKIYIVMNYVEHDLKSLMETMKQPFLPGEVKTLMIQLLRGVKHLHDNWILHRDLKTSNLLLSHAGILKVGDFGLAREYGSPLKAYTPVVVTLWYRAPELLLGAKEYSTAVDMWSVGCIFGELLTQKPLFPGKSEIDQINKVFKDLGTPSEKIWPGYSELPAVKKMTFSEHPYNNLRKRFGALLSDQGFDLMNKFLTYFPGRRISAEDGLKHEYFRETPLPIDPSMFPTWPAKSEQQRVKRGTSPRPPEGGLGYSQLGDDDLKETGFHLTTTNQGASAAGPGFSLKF
UniProt J3QR44, whole entry, looked up: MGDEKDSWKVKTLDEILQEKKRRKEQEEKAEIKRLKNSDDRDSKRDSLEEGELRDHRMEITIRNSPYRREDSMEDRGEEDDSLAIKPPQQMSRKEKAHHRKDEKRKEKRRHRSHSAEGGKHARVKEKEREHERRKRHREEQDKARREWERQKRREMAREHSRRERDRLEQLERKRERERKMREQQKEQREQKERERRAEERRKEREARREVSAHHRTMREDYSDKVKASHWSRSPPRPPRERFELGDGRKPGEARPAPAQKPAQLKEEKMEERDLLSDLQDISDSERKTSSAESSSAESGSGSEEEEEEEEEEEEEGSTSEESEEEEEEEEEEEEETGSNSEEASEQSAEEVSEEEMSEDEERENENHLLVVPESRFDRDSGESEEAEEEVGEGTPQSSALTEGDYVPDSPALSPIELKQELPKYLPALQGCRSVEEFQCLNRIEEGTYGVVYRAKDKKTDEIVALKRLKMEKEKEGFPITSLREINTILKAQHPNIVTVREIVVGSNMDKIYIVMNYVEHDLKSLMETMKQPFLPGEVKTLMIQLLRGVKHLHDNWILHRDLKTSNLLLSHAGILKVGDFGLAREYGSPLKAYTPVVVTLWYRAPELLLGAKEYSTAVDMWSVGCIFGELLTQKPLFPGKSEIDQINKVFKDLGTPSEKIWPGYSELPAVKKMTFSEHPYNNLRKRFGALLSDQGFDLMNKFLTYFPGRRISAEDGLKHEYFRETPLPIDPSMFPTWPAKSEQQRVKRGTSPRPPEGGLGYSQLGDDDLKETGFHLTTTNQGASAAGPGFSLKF
UniProt P21127: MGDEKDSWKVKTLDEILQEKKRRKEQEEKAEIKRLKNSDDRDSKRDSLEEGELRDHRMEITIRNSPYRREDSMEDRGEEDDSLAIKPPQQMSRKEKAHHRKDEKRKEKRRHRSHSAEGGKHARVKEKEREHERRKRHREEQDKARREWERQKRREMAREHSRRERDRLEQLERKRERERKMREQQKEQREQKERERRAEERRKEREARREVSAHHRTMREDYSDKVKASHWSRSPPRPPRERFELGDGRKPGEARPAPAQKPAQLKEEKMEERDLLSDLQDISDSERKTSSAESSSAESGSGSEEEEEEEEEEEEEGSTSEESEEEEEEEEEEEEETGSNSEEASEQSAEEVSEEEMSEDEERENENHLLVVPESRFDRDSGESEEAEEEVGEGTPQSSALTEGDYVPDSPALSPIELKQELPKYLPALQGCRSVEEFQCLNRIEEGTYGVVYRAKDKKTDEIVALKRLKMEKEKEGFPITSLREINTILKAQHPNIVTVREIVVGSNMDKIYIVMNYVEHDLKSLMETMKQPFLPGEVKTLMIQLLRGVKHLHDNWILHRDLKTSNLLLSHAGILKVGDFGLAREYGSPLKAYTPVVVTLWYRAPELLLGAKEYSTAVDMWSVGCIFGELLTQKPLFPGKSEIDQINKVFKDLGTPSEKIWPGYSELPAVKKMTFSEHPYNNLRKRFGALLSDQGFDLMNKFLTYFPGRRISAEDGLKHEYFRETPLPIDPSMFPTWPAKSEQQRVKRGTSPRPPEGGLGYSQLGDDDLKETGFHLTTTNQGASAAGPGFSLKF

± gives the standard deviation of the averaged measurements. Only a part is listed here, and it is no random draw.

Compound in the assay: Nc1ncnc2c1ncn2[C@@H]1O[C@H](COP(=O)(O)OP(=O)(O)NP(=O)(O)O)[C@@H](O)[C@H]1O [adenylyl imidodiphosphate]
The experiment in a line: NP40-soluble protein abundance relative to vehicle (solubility fold change) (ratio); higher = more soluble protein in presence of AMP-PNP. In a few lines: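 Values are fold changes against the detergent-processed vehicle, based on vsn-normalised intensities. Jurkat crude lysate was treated at eight concentrations from 0.1 to 10 mM (10 min at room temperature, then 3 min at 37 °C), solubilised with 0.8% NP40 and benzonase, ultracentrifuged and analysed by TMT-labelled LC-MS/MS over three independent experiments.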

For A0A087WZX2|O95139 (UniProt O95139), the NP40-soluble protein abundance runs as follows: (concentration: 1mM) 0.9832 ± 0.0059; (concentration: 2mM) 1.07 ± 0.057; (concentration: 4mM) 1.03 ± 0.025; (concentration: 6mM) 0.998 ± 0.042; (concentration: 8mM) 0.964 ± 0.037; (concentration: 10mM) 0.98 ± 0.036.
On to A0A087X256|Q2M389 (UniProt Q2M389), for which the NP40-soluble protein abundance runs as follows: (concentration: 1mM) 0.975 ± 0.015; (concentration: 2mM) 0.971 ± 0.064; (concentration: 4mM) 0.995 ± 0.028; (concentration: 6mM) 0.97 ± 0.034; (concentration: 8mM) 0.967 ± 0.013; (concentration: 10mM) 0.943 ± 0.026.
As for “A0A0D9SF44|A0A0R4J2E2|Q9Y3T6 (UniProt Q9Y3T6)”, the NP40-soluble protein abundance reads like this: (concentration: 1mM) 1.01 ± 0.042; (concentration: 2mM) 1.01 ± 0.034; (concentration: 4mM) 0.996 ± 0.035; (concentration: 6mM) 1.05 ± 0.036; (concentration: 8mM) 1.03 ± 0.063; (concentration: 10mM) 1.04 ± 0.047.
With A0A087X176|Q6ZRP7 (UniProt Q6ZRP7), the NP40-soluble protein abundance was 0.98 ± 0.037 (concentration: 1mM); 1.02 ± 0.048 (concentration: 2mM); 1.01 ± 0.077 (concentration: 4mM); 1.03 ± 0.063 (concentration: 6mM); 1.04 ± 0.043 (concentration: 8mM); 1.06 ± 0.072 (concentration: 10mM).
Consider “A0A0A0MRJ0|Q5VT25 and related entries (UniProt Q5VT25)”, for which the NP40-soluble protein abundance came to 1.04 ± 0.029 (concentration: 1mM); 1.1 ± 0.014 (concentration: 2mM); 1.109 ± 0.0074 (concentration: 4mM); 1.1 ± 0.073 (concentration: 6mM); 1.09 ± 0.051 (concentration: 8mM); 1.14 ± 0.044 (concentration: 10mM).
“A0A0D9SEI3|A0A0D9SEN2|A0A0D9SER5|B7ZVY7 and related entries (UniProt J3QR44+P21127+B7ZVY7)”: the NP40-soluble protein abundance stood at 0.966 ± 0.018 (concentration: 1mM); 0.942 ± 0.036 (concentration: 2mM); 0.92 ± 0.022 (concentration: 4mM); 0.978 ± 0.035 (concentration: 6mM); 0.94 ± 0.041 (concentration: 8mM); 0.966 ± 0.035 (concentration: 10mM).
